Publication doi:10.1101/2022.04.29.490010 (bioRxiv, 2022)
Results are given in words; binding and its absence hold for the method and conditions named. Binding seen in cells or lysates may run through a third protein. Some binding calls cover weakened binding; strength is not graded here. Where a sequence is shown, tags or fusion partners need not be part of it.

T1: Dynamin (Drosophila, endogenous) (Drosophila (endogenous in fly heads)) (UniProt P27619)
T1 sequence: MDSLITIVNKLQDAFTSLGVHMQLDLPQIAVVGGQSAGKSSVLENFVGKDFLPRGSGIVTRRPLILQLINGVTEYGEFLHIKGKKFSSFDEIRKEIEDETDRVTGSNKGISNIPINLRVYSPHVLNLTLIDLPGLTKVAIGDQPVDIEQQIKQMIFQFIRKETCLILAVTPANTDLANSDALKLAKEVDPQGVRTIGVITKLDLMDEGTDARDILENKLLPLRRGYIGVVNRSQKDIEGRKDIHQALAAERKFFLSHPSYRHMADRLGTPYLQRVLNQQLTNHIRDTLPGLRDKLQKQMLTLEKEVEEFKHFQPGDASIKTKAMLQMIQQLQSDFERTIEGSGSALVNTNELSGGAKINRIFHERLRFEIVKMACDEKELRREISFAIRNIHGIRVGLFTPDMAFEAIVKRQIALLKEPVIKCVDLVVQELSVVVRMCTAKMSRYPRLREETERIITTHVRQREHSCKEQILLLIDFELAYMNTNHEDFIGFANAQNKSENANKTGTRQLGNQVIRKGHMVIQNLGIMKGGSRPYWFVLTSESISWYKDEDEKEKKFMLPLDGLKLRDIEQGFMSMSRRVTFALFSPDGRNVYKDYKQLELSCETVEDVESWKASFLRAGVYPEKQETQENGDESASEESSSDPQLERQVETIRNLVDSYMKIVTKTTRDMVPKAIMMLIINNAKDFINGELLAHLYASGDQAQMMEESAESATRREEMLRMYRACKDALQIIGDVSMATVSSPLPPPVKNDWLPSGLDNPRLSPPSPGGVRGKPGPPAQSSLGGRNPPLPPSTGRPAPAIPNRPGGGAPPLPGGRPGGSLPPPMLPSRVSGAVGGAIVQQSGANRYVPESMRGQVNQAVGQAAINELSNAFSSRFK


Target: T1, Dynamin (Drosophila, endogenous) (Drosophila (endogenous in fly heads))
Assay: co-IP

binding	Binder
binds	EndoA wild type (Drosophila Endophilin-A, GST tag cleaved) (natural protein, UniProt Q8T390 1-369, looked up) MAFAGLKKQINKANQYMTEKMGGAEGTKLDMDFMEMERKTDVTVELVEELQLKTKEFLQPNPTARAKMAAVKGISKLSGQAKSNTYPQPEGLLAECMLTYGKKLGEDNSVFAQALVEFGEALKQMADVKYSLDDNIKQNFLEPLHHMQTKDLKEVMHHRKKLQGRRLDFDCKRRRQAKDDEIRGAEDKFGESLQLAQVGMFNLLENDTEHVSQLVTFAEALYDFHSQCADVLRGLQETLQEKRSEAESRPRNEFVPKTLLDLNLDGGGGGLNEDGTPSHISSSASPLPSPMRSPAKSMAVTPQRQQQPCCQALYDFEPENPGELAFKENDIITLLNRVDDNWFEGAVNGRTGYFPQSYVQVQVPLPNGN
binds	EndoA^D265R (Drosophila Endophilin-A D265R, GST tag cleaved) (natural protein, UniProt Q8T390 1-369, looked up) MAFAGLKKQINKANQYMTEKMGGAEGTKLDMDFMEMERKTDVTVELVEELQLKTKEFLQPNPTARAKMAAVKGISKLSGQAKSNTYPQPEGLLAECMLTYGKKLGEDNSVFAQALVEFGEALKQMADVKYSLDDNIKQNFLEPLHHMQTKDLKEVMHHRKKLQGRRLDFDCKRRRQAKDDEIRGAEDKFGESLQLAQVGMFNLLENDTEHVSQLVTFAEALYDFHSQCADVLRGLQETLQEKRSEAESRPRNEFVPKTLLDLNLRGGGGGLNEDGTPSHISSSASPLPSPMRSPAKSMAVTPQRQQQPCCQALYDFEPENPGELAFKENDIITLLNRVDDNWFEGAVNGRTGYFPQSYVQVQVPLPNGN
binds	EndoA^D265A (Drosophila Endophilin-A D265A, GST tag cleaved) (natural protein, UniProt Q8T390 1-369, looked up) MAFAGLKKQINKANQYMTEKMGGAEGTKLDMDFMEMERKTDVTVELVEELQLKTKEFLQPNPTARAKMAAVKGISKLSGQAKSNTYPQPEGLLAECMLTYGKKLGEDNSVFAQALVEFGEALKQMADVKYSLDDNIKQNFLEPLHHMQTKDLKEVMHHRKKLQGRRLDFDCKRRRQAKDDEIRGAEDKFGESLQLAQVGMFNLLENDTEHVSQLVTFAEALYDFHSQCADVLRGLQETLQEKRSEAESRPRNEFVPKTLLDLNLAGGGGGLNEDGTPSHISSSASPLPSPMRSPAKSMAVTPQRQQQPCCQALYDFEPENPGELAFKENDIITLLNRVDDNWFEGAVNGRTGYFPQSYVQVQVPLPNGN
